# Some of the results follow.
# Protein sequences, listed by entry. Tags and fused reporters are not part of them. Lines headed by an entry give the natural chain unless they say otherwise; changes in a name come on top.
# UniProt Q5VZF2: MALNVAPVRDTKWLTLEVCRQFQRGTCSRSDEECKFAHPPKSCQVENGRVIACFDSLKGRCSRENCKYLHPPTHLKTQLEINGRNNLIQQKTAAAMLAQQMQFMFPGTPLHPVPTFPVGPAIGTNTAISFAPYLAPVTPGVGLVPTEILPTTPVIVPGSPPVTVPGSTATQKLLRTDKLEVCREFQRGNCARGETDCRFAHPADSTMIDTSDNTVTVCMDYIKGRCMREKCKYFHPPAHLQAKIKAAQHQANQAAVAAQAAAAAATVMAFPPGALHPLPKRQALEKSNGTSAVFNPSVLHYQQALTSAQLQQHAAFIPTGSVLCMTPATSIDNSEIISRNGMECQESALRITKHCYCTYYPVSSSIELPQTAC
# UniProt Q8NHS3: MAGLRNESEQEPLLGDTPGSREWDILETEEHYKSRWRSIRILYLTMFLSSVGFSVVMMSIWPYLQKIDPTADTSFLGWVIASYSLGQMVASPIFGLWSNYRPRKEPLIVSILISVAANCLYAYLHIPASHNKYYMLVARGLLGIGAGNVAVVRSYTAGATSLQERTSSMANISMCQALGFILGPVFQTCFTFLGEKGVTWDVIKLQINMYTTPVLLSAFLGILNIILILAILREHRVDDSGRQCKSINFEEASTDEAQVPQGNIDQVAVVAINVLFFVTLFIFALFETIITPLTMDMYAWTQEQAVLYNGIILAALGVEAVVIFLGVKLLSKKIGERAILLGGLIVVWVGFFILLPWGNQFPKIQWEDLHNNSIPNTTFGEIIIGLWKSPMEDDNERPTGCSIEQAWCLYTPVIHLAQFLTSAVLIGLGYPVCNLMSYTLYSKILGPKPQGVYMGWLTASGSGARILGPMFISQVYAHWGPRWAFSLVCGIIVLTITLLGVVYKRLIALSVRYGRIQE
# UniProt O14770: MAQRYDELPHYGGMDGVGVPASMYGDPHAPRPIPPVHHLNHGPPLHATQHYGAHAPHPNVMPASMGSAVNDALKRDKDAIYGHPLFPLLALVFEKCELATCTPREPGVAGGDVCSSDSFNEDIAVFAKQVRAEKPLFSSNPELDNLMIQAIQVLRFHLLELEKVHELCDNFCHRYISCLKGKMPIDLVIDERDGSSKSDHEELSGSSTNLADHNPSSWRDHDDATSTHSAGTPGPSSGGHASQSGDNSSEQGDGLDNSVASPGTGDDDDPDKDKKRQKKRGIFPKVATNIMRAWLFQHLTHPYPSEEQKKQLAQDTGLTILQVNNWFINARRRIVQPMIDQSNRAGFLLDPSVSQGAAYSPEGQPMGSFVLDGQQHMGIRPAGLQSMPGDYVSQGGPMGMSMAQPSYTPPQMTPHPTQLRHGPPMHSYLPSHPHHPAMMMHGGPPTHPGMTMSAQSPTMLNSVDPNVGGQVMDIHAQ
# UniProt Q6ZN04: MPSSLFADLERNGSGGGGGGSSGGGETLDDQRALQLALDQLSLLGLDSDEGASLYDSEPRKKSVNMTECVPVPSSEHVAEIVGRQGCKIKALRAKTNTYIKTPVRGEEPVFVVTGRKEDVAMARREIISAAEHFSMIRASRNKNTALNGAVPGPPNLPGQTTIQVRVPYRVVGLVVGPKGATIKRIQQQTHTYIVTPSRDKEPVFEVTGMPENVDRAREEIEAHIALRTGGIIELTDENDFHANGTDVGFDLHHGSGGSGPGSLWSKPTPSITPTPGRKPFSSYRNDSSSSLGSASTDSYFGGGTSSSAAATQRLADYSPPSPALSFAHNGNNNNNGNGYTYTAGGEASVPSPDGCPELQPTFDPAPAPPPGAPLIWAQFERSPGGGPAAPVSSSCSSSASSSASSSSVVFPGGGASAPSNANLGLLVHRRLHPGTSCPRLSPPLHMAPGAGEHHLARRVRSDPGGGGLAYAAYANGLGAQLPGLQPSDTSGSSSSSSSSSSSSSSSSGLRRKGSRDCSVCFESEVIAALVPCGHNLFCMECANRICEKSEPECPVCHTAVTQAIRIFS
# UniProt A4D2B0: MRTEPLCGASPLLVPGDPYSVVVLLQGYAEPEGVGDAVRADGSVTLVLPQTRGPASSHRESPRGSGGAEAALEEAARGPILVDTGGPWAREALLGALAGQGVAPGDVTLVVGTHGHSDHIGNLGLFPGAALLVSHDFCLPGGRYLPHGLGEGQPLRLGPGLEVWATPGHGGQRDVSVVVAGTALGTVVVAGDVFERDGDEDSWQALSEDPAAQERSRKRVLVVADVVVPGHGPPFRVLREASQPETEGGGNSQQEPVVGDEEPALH
# UniProt O43462: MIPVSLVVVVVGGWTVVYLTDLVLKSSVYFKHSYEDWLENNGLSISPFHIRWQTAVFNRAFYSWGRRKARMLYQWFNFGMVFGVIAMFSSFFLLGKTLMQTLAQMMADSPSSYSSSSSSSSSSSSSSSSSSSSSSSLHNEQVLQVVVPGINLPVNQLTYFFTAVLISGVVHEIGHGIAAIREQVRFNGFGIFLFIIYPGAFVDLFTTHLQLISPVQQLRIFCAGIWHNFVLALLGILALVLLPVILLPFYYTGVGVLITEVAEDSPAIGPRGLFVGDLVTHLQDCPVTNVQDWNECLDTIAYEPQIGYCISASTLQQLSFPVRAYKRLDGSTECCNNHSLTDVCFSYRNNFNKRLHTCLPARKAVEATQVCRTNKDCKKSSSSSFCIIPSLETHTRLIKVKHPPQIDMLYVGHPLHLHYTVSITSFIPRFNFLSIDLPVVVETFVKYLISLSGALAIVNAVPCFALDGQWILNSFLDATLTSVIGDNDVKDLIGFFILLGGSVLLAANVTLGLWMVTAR
# UniProt Q8TCB7: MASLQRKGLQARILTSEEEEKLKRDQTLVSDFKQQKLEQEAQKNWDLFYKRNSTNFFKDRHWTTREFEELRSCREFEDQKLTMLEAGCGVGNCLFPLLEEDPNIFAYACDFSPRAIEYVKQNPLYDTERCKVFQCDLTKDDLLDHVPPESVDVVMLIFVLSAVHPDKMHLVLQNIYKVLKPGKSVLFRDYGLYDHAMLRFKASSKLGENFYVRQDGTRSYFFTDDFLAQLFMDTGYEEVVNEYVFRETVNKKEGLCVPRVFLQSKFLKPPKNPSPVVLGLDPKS
# UniProt O43934: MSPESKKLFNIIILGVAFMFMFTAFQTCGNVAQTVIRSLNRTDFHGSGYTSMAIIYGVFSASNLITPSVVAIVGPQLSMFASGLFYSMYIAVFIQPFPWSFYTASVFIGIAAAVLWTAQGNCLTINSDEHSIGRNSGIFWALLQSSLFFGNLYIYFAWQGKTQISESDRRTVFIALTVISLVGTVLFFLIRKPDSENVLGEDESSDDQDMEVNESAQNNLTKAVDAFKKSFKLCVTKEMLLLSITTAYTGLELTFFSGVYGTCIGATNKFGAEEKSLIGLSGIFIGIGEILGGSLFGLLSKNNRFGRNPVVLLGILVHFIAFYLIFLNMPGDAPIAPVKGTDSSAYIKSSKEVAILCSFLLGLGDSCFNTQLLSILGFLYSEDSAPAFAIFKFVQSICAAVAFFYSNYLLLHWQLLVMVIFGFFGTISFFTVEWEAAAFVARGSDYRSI
# UniProt Q13503: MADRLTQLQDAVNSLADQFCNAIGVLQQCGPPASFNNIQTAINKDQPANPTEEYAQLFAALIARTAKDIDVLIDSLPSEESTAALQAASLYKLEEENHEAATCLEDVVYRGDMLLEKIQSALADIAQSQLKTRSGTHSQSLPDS
# UniProt O60291: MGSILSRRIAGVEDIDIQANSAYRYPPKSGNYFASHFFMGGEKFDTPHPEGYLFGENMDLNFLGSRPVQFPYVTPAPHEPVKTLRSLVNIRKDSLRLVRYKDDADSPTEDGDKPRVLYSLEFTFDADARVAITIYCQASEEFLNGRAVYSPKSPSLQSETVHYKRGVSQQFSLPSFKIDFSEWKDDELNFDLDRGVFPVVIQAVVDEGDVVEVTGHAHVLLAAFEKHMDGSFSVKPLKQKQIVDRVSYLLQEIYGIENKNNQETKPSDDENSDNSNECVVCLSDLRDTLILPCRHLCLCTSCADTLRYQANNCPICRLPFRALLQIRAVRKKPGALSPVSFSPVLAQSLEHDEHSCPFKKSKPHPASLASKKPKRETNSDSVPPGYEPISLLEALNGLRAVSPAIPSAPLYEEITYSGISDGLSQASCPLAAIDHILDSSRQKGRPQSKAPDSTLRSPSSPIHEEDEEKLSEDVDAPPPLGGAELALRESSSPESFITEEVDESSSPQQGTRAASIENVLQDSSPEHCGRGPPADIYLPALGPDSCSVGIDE
# UniProt Q02078: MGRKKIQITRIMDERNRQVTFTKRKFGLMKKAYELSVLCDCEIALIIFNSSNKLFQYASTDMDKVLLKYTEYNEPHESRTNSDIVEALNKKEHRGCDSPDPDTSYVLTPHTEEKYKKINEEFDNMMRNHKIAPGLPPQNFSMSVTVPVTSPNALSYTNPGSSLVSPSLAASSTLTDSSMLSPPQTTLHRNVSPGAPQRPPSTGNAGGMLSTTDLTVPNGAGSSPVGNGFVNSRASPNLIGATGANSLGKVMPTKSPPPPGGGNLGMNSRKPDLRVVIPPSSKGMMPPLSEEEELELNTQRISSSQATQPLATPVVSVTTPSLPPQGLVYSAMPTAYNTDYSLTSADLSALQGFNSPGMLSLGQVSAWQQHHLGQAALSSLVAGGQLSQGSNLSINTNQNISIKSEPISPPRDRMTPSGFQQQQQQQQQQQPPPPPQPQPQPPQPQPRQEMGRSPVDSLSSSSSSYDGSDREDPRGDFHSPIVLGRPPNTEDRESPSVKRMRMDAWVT
# UniProt Q9NS73: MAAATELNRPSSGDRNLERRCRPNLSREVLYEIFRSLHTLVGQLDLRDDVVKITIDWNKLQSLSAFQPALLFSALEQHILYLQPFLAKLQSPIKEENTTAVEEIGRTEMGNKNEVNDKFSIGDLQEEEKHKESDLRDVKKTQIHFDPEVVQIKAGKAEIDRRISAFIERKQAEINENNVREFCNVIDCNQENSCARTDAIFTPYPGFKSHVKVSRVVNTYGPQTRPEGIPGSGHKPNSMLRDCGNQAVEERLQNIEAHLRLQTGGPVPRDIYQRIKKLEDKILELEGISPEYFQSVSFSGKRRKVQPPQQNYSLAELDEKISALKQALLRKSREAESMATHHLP
# UniProt Q14680: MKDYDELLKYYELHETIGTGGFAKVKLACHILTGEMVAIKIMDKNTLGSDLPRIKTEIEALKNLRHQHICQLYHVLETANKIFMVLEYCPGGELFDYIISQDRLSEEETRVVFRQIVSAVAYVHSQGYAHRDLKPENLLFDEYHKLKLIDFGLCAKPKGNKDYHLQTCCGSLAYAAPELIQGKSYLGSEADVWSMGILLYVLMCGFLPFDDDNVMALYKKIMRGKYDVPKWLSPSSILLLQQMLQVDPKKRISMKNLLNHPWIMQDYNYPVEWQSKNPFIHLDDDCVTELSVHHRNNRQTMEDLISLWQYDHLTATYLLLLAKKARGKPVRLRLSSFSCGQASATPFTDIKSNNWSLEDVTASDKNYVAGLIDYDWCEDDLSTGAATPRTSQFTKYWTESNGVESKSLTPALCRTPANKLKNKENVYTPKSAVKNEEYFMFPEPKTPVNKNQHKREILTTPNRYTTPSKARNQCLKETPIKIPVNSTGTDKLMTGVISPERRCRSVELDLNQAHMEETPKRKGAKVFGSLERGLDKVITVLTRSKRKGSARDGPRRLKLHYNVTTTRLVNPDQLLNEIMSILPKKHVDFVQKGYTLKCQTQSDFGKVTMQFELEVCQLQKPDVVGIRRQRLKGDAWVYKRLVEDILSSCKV
# UniProt O75586: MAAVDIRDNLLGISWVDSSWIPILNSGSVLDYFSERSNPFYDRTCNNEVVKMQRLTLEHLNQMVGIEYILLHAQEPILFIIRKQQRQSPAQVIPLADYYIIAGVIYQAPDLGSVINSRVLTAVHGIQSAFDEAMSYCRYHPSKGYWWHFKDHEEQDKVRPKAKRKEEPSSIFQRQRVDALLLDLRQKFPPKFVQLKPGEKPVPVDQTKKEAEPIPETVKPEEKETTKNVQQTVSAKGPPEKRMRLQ
# UniProt Q9P086: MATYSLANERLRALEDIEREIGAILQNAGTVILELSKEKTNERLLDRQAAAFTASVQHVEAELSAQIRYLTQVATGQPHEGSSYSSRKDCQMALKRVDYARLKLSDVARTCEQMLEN
# UniProt Q9NWA0: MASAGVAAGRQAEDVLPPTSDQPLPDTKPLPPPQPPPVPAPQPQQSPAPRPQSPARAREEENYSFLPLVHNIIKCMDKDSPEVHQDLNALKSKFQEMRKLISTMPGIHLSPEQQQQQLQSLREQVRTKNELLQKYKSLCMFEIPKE
# UniProt Q6P2C8: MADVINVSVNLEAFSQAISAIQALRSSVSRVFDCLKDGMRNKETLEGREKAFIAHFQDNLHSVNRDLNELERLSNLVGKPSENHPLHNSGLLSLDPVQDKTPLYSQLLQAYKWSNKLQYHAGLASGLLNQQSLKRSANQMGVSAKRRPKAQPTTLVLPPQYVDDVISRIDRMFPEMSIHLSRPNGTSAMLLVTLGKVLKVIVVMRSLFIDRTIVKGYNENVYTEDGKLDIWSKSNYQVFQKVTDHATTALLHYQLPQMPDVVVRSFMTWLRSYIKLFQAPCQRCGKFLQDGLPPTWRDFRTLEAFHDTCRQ
# Compound: CC1=C(C=C(C=C1)NC(=O)C2=CC(=CC=C2)N(C)C)NC(=O)C3=CC=C(C=C3)O
# Experiment: log2 fold change, soluble protein after heating vs DMSO (PISA); higher = thermal stabilisation; K562 cells, 10 uM, 30 min; active = over 0.2 and 3.5 SD of the protein, either way, in both replicates (recomputed)
# Method in brief: (§1)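 Soluble protein was defined as the supernatant after 21,000xg for 90 min. It came from K562 cells at 2×10^6 cells/mL given 10 μM compound for 30 min, heated in aliquots for 3 min across 48°C-58°C, pooled, and extracted in PBS with 0.5% NP-40 at 4°C, and was quantified by TMTpro 16plex LC-MS/MS with equalised channel sums. Thermal stability against control samples, from duplicates, is reported as log2 fold change.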
row,Target,log2 fold change
1,MBNL2 (UniProt Q5VZF2),inactive: -0.005
2,MAST2 (UniProt Q6P0Q8),inactive: -0.022
3,MFSD8 (UniProt Q8NHS3),inactive: -0.026
4,MEIS2 (UniProt O14770),inactive: 0.017

# Compound: CC1=CC=C(C=C1)SC2=C3C=C(SC3=CN=C2)C(=O)N
# Experiment: as above
# Method in brief: as §1
row,Target,log2 fold change
1,METTL26 (UniProt Q96S19),inactive: 0
2,MEGF10 (UniProt Q96KG7),inactive: -0.112
3,MEX3B (UniProt Q6ZN04),inactive: 0.204
4,MBLAC1 (UniProt A4D2B0),inactive: -0.093
5,MBTPS2 (UniProt O43462),inactive: 0.023
6,METTL6 (UniProt Q8TCB7),inactive: -0.141
7,MFSD11 (UniProt O43934),inactive: 0.038
8,MED21 (UniProt Q13503),inactive: -0.159
9,MED29 (UniProt Q9NX70),inactive: -0.075
10,MGRN1 isoform 2 (UniProt O60291),inactive: 0.021
11,METTL9 (UniProt Q9H1A3),inactive: -0.028
12,MFSD9 (UniProt Q8NBP5),inactive: 0.004
13,MED13L (UniProt Q71F56),inactive: -0.121
14,MEF2A (UniProt Q02078),inactive: -0.04
15,MEF2A isoform 2 (UniProt Q02078),inactive: 0.006
16,MDK (UniProt P21741),inactive: -0.108
17,MBIP (UniProt Q9NS73),inactive: -0.027
18,MCOLN3 (UniProt Q8TDD5),inactive: 0.15
19,MBNL2 (UniProt Q5VZF2),inactive: -0.002
20,MFSD8 (UniProt Q8NHS3),inactive: 0.113
21,MEIS2 (UniProt O14770),inactive: -0.022
22,MELK (UniProt Q14680),inactive: 0.111

# Compound: CC1=NC(=CC=C1)C2=C(N=C(N2)C(C)(C)C)C3=CC4=NC=CN=C4C=C3
# Experiment: as above
# Method in brief: as §1
row,Target,log2 fold change
1,MBLAC1 (UniProt A4D2B0),inactive: -0.098
2,MBTPS2 (UniProt O43462),inactive: -0.046
3,METTL6 (UniProt Q8TCB7),inactive: 0.2
4,MFSD11 (UniProt O43934),inactive: 0.013
5,MED6 (UniProt O75586),inactive: -0.023
6,MGRN1 isoform 2 (UniProt O60291),inactive: -0.02
7,MED11 (UniProt Q9P086),inactive: 0.126
8,MFHAS1 (UniProt Q9Y4C4),inactive: -0.194
9,MEGF8 (UniProt Q7Z7M0),inactive: 0.009
10,MED31 (UniProt Q9Y3C7),inactive: 0.06
11,MEF2A isoform 2 (UniProt Q02078),inactive: 0.036
12,MED9 (UniProt Q9NWA0),inactive: 0.017
13,MBIP (UniProt Q9NS73),inactive: -0.068
14,MBNL2 (UniProt Q5VZF2),inactive: -0.044
15,MFSD8 (UniProt Q8NHS3),inactive: 0.011
16,MEIS2 (UniProt O14770),inactive: 0.076
17,MELK (UniProt Q14680),inactive: -0.015

# Compound: CCCCN(Cc1ccc(C(=O)NO)cc1)C(=O)Nc1ccccc1 [Nexturastat A]
# Experiment: as above
# Method in brief: as §1
row,Target,log2 fold change
1,MFSD6 (UniProt Q6ZSS7),inactive: 0.058
2,MBTPS2 (UniProt O43462),inactive: -0.075
3,MED27 (UniProt Q6P2C8),inactive: 0.026
4,METTL6 (UniProt Q8TCB7),inactive: 0.082
5,METTL7B (UniProt Q6UX53),inactive: 0.155
6,MFSD11 (UniProt O43934),inactive: -0.097
7,MED6 (UniProt O75586),inactive: 0.008
8,MED13L (UniProt Q71F56),inactive: 0.194
9,MEF2A (UniProt Q02078),inactive: -0.021
10,MEF2C isoform 2 (UniProt Q06413),inactive: -0.14
11,MFAP3 (UniProt P55082),inactive: 0.11
12,MFSD8 (UniProt Q8NHS3),inactive: -0.004
13,METTL15 (UniProt A6NJ78),inactive: -0.014
14,MELK (UniProt Q14680),inactive: 0.134

# Compound: CCCS(=O)(=O)Nc1ccc(F)c(C(=O)c2c[nH]c3ncc(-c4ccc(Cl)cc4)cc23)c1F [vemurafenib]
# Experiment: as above
# Method in brief: as §1
row,Target,log2 fold change
1,MFSD6 (UniProt Q6ZSS7),inactive: 0.045
2,MATK isoform 2 (UniProt P42679),inactive: 0.074
3,MBLAC1 (UniProt A4D2B0),inactive: 0.029
4,MBTPS2 (UniProt O43462),inactive: -0.078
5,MFSD11 (UniProt O43934),inactive: -0.012
6,MED6 (UniProt O75586),inactive: 0.289
7,MFHAS1 (UniProt Q9Y4C4),inactive: -0.063
8,METTL9 (UniProt Q9H1A3),inactive: -0.01
9,MED13L (UniProt Q71F56),inactive: -0.053
10,MED31 (UniProt Q9Y3C7),inactive: 0.105
11,MEF2A isoform 2 (UniProt Q02078),inactive: 0.008
12,MBIP (UniProt Q9NS73),inactive: -0.034
13,MFAP3 (UniProt P55082),inactive: -0.115
14,MFSD8 (UniProt Q8NHS3),inactive: 0.045
